The values are deposited in ChEMBL (CHEMBL3988442, “University of Dundee, Small-Polar-MMV Screening Library” (2021)).

Chains of the proteins cited; added tags and fusions are not shown.
UniProt E9BF75, entry or part of it: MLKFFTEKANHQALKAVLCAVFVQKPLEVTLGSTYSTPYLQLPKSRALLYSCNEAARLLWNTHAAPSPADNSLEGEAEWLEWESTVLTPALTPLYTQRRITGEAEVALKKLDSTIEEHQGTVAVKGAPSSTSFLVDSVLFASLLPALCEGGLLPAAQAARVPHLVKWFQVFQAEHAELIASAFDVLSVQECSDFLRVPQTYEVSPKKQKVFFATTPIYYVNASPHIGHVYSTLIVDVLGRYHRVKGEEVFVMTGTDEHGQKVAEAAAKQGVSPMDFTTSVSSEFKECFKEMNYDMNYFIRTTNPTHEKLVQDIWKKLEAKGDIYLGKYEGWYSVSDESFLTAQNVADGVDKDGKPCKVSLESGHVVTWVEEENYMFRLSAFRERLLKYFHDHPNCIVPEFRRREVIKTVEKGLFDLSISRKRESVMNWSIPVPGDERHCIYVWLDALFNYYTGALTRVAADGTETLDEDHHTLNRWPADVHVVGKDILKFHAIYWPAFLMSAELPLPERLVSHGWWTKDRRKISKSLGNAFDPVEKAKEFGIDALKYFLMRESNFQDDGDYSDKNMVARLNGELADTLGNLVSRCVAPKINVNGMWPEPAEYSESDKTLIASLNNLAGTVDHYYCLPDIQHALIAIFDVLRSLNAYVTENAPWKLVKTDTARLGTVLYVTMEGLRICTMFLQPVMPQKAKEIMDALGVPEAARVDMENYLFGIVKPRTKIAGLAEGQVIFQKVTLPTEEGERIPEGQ

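Primary screen of methionyl-tRNA synthetase; the read-out is not stated. Target: Methionyl-tRNA synthetase (putative), Leishmania donovani (UniProt E9BF75). The test concentration is not given. Values are per cent inhibition. Of about 68,000 compounds tested this way, about 24 (0.035%) reached 50% or more in at least one test.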

Results are percentages, as filed.
How 0% and 100% were set is not recorded. Most values in the screen are low, and negative values occur.
This is an unselected part of the compounds tested.

CN(Cc1cnn(C)c1)S(=O)(=O)N1CCCCCC1 gave 6.747%.
Cn1c2c(c(=O)n1C)CN(S(=O)(=O)c1cccs1)CCC2 gave 2.094%.
CNc1snc(C)c1C(=O)N1CCCC(n2nc(C)cc2C)C1 (stereo not given) gave 9.091%.
CCn1cc(N)c(-c2nnc3n2CCCC3)n1 gave 7.297%.
CCS(=O)(=O)N1CC(c2nc(-c3ccsc3)no2)C1 gave 13.04%.
Cc1nn(C)c2cnn(CC(=O)NCc3ccc(F)cc3)c12 gave -44.97%.
COc1cccc(CCC(=O)N2CCCC(n3cc(C)cn3)C2)c1 (stereo not given) gave 8.333%.
Cc1ccc(C(=O)N2CCOCC2C(N)=O)c(F)c1 (stereo not given) gave -21.55%.
CCn1ccnc1CN1CCN(CC(=O)NC(C2CC2)C2CC2)CC1 gave 8.421%.
Cc1cnc(CN2CCOC(CN(C)c3cccnn3)C2)cn1 (stereo not given) gave 1.718%.
Cn1cc(NC(=O)CNC(=O)N2CCN(c3ccc(Cl)cc3)CC2)cn1 gave 13.4%.
CC(C)(C)CN[C@@H]1CO[C@H](CNC(=O)C2CCCC2)[C@H]1O gave -1.695%.
CCCn1cc(C(=O)N2CCCC(c3nccn3CCOC)C2)c(C)n1 (stereo not given) gave 6.452%.
COCCOc1ncccc1C(=O)N1CCCn2ncnc21 gave 9.763%.
CC(C)c1nccn1C(C)C(=O)NC1CCOCC1 (stereo not given) gave 7.532%.
CCN(CC)S(=O)(=O)N1CC[C@H](c2ccccc2)[C@@H]2[C@H]1CCCCN2C gave 22.15%.
O=S(=O)(Nc1nccs1)c1cc(Cl)cc2c1OCC2 gave 13.77%.
CNC(=O)c1ccc2c(c1)C1(CCN(C(C)C)CC1)C(=O)N2 gave 3.046%.
Cc1cc(C(=O)N2CCn3cc(CN4CCCCC4)nc3C2)no1 gave 8.458%.
CC1(c2ccc(Br)cc2)CC(=O)N(CCC(N)=O)C1=O (stereo not given) gave 8.657%.
c1cncc(-c2noc(CNCC3CCCN3c3cccnn3)n2)c1 (stereo not given) gave 33.67%.
CN1C(=O)CCc2cc(NC(=O)C3CCCC3)ccc21 gave -5.755%.
COCC(O)CN1CC(C)(C)CN(C(=O)CCc2ccccc2)CC1=O (stereo not given) gave 12.33%.
CCn1cnnc1CNC(=O)CCC(=O)c1ccc2c(c1)OCCO2 gave 15.03%.
CC(Cc1ccco1)NC(=O)Nc1ccc(S(C)(=O)=O)nc1 (stereo not given) gave 11.22%.
Cc1nc2c(c(NC(C)c3nnn[nH]3)n1)Cc1ccccc1OC2 (stereo not given) gave 18.58%.
Cc1ccc(-c2nnc(CN3CCNC(=O)C3)o2)cc1 gave 9.363%.
COCCN1CCC(CN(CC2CCCO2)C(=O)CCC(F)(F)F)CC1 (stereo not given) gave 18.03%.
Cc1cnc(C(=O)NCc2ccc3c(c2)CCCN3C)cn1 gave 19.94%.
CN1CC[C@]2(CN(C(=O)[C@H]3CCCO3)C[C@H]2c2ccccc2)C1=O gave 11.5%.
CNC(=O)C1Cn2ccnc2C2(CCN(Cc3nccs3)CC2)O1 (stereo not given) gave 3.98%.
CCN(CC)C(=O)CN1CCC(c2nc(C)c3c(n2)N(C)CCC3)CC1 gave -4.724%.
COC1CCN(C(=O)Nc2ccccc2)CC(=O)N(C)c2ccccc21 (stereo not given) gave 9.041%.
COc1cccc(-c2cccc(CN3C[C@@H]4CC[C@H](C3)N(C)C4=O)c2)c1 gave 2.465%.
CC(c1nc(C2CC2)no1)N1CCN(CC(=O)N2CCOCC2)CC1 (stereo not given) gave 18.59%.
COc1ccc(-c2cc(C3CCCNC3)ccn2)cc1 (stereo not given) gave 15.82%.
CCOC(=O)c1ccc(NC(=O)Cn2cc(I)cn2)cc1 gave 12.24%.
Cn1ccc(CN2CC(Cc3nccc4cc[nH]c34)C2)n1 gave 6.383%.
O=C(CC1CCCCC1)N1CCC(c2ncc3c(n2)CCNC3)CC1 gave 19.42%.
Cc1ccc(C(=O)N2CCCC(n3cccn3)C2)cc1S(C)(=O)=O (stereo not given) gave 18.2%.
CCN1CC(C(=O)NC(C)(C)C)CC1=O (stereo not given) gave 7.829%.
CNC(=O)NCC1CCC2(CCN(C(=O)c3ccccn3)CC2)CO1 (stereo not given) gave 19.12%.
CC(Cn1cccn1)NC(=O)Cc1csc(C(C)C)n1 (stereo not given) gave 18.21%.
Cc1ccc(-c2nc(CN3CCn4c(nnc4C4CC4)C3)co2)cc1 gave 18.88%.
Cc1c2nnn(CC(=O)N(C)C)c(=O)c2nn1C gave 9.023%.
O=C(C1CC1)N1CCC2(CC1)CNc1ccc(F)cc12 gave 8.014%.
O=C(CC1CCCO1)NCc1ccc(Br)cc1F (stereo not given) gave 6.044%.
CC(C)N1CCCC(C(=O)NCc2noc(Cc3ccccc3)n2)C1 (stereo not given) gave 5.155%.
CNC(=O)[C@H]1C[C@@H]2CN(C(=O)c3occc3C)C[C@@H]2N1S(C)(=O)=O gave -1.918%.
CCOc1nn(CC)cc1-c1nnc(SCc2cccnc2)n1CC gave 15.11%.
O=C(C1CCC1)N1CCO[C@@H]2CNC[C@@H]21 gave -4.261%.

For reference, 6 entries once more:

{"compound": "c1cncc(-c2noc(CNCC3CCCN3c3cccnn3)n2)c1", "stereo": "stereo not given", "Inhibition": 33.67}
{"compound": "Cn1ccc(CN2CC(Cc3nccc4cc[nH]c34)C2)n1", "Inhibition": 6.383}
{"compound": "CC(C)(C)CN[C@@H]1CO[C@H](CNC(=O)C2CCCC2)[C@H]1O", "Inhibition": -1.695}
{"compound": "CC(C)c1nccn1C(C)C(=O)NC1CCOCC1", "stereo": "stereo not given", "Inhibition": 7.532}
{"compound": "O=S(=O)(Nc1nccs1)c1cc(Cl)cc2c1OCC2", "Inhibition": 13.77}
{"compound": "Cc1nn(C)c2cnn(CC(=O)NCc3ccc(F)cc3)c12", "Inhibition": -44.97}